These are yes or no findings as the source states them, for the method shown. In cells and extracts the contact can be indirect. Binding calls can cover weak binding; strength is not graded here.
Molecular target: GST-RLD (RCC1-like domain of RPGR fused to glutathione S-transferase) (UniProt Q92834)
Assay: pull-down; GST or GST-RLD purified from E. coli as bait; 35S-labeled in vitro translated proteins as prey; autoradiography; only the target purified

By UniProt entry, the sequences of proteins in these tests, tags left out. Where a name states a change or a piece, a line headed by the entry shows the natural chain unless it says otherwise.
UniProt Q92834: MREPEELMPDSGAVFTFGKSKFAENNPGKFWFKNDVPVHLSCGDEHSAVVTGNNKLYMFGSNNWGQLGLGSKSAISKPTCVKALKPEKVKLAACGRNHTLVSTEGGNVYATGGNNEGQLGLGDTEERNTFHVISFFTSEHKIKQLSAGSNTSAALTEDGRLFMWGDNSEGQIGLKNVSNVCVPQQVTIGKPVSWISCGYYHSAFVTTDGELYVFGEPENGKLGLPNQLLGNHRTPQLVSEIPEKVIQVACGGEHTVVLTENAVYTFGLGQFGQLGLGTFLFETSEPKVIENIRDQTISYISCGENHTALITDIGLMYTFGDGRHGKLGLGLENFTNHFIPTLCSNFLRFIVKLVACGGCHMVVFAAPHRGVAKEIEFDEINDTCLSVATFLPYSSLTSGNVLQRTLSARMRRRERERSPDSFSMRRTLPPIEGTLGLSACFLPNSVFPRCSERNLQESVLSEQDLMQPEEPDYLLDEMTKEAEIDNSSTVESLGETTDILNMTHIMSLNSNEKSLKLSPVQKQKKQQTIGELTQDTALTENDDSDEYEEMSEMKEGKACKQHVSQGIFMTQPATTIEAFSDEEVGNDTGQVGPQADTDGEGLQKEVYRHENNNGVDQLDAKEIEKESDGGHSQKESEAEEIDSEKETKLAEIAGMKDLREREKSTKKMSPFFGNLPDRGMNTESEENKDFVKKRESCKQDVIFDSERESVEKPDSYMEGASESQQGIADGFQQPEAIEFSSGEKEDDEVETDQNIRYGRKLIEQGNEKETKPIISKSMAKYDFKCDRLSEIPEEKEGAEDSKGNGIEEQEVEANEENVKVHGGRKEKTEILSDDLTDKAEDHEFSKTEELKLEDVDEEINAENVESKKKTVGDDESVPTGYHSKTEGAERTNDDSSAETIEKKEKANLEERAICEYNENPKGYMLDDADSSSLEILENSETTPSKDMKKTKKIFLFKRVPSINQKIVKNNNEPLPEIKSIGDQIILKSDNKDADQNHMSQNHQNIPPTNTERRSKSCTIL

| binding | Binder |
| --- | --- |
| binds | NPHP4 N-terminal 316 amino acids (N316), 35S-labeled (domain or fragment, UniProt O75161 1-316, 35S-labeled methionine) MNDWHRIFTQNVLVPPHPQRARQPWKESTAFQCVLKWLDGPVIRQGVLEVLSEVECHLRVSFFDVTYRHFFGRTWKTTVKPTKRPPSRIVFNEPLYFHTSLNHPHIVAVVEVVAEGKKRDGSLQTLSCGFGILRIFSNQPDSPISASQDKRLRLYHGTPRALLHPLLQDPAEQNRHMTLIENCSLQYTLKPHPALEPAFHLLPENLLVSGLQQIPGLLPAHGESGDALRKPRLQKPITGHLDDLFFTLYPSLEKFEEELLELHVQDHFQEGCGPLDGGALEILERRLRVGVHNGLGFVQRPQVVVLVPEMDVALTR |
| binds | NPHP1 amino acids 243–586, 35S-labeled (domain or fragment, UniProt O15259 243-586, 35S-labeled methionine) RTDPHWSAVQKAISEAGIFCLVNHVSFCYLIVLMRNRMETVEDTNGSETGFRAWNVQSRGRIFLVSKPVLQINTVDVLTTMGAIPAGFRPSTLSQLLEEGNQFRANYFLQPELMPSQLAFRDLMWDATEGTIRSRPSRISLILTLWSCKMIPLPGMSIQVLSRHVRLCLFDGNKVLSNIHTVRATWQPKKPKTWTFSPQVTRILPCLLDGDCFIRSNSASPDLGILFELGISYIRNSTGERGELSCGWVFLKLFDASGVPIPAKTYELFLNGGTPYEKGIEVDPSISRRAHGSVFYQIMTMRRQPQLLVKLRSLNRRSRNVLSLLPETLIGNMCSIHLLIFYRQ |
| binds | 35S-labeled in vitro translated NPHP4, full length (protein, UniProt O75161 1-1426, 35S-labeled methionine) MNDWHRIFTQNVLVPPHPQRARQPWKESTAFQCVLKWLDGPVIRQGVLEVLSEVECHLRVSFFDVTYRHFFGRTWKTTVKPTKRPPSRIVFNEPLYFHTSLNHPHIVAVVEVVAEGKKRDGSLQTLSCGFGILRIFSNQPDSPISASQDKRLRLYHGTPRALLHPLLQDPAEQNRHMTLIENCSLQYTLKPHPALEPAFHLLPENLLVSGLQQIPGLLPAHGESGDALRKPRLQKPITGHLDDLFFTLYPSLEKFEEELLELHVQDHFQEGCGPLDGGALEILERRLRVGVHNGLGFVQRPQVVVLVPEMDVALTRSASFSRKVVSSSKTSSGSQALVLRSRLRLPEMVGHPAFAVIFQLEYVFSSPAGVDGNAASVTSLSNLACMHMVRWAVWNPLLEADSGRVTLPLQGGIQPNPSHCLVYKVPSASMSSEEVKQVESGTLRFQFSLGSEEHLDAPTEPVSGPKVERRPSRKPPTSPSSPPAPVPRVLAAPQNSPVGPGLSISQLAASPRSPTQHCLARPTSQLPHGSQASPAQAQEFPLEAGISHLEADLSQTSLVLETSIAEQLQELPFTPLHAPIVVGTQTRSSAGQPSRASMVLLQSSGFPEILDANKQPAEAVSATEPVTFNPQKEESDCLQSNEMVLQFLAFSRVAQDCRGTSWPKTVYFTFQFYRFPPATTPRLQLVQLDEAGQPSSGALTHILVPVSRDGTFDAGSPGFQLRYMVGPGFLKPGERRCFARYLAVQTLQIDVWDGDSLLLIGSAAVQMKHLLRQGRPAVQASHELEVVATEYEQDNMVVSGDMLGFGRVKPIGVHSVVKGRLHLTLANVGHPCEQKVRGCSTLPPSRSRVISNDGASRFSGGSLLTTGSSRRKHVVQAQKLADVDSELAAMLLTHARQGKGPQDVSRESDATRRRKLERMRSVRLQEAGGDLGRRGTSVLAQQSVRTQHLRDLQVIAAYRERTKAESIASLLSLAITTEHTLHATLGVAEFFEFVLKNPHNTQHTVTVEIDNPELSVIVDSQEWRDFKGAAGLHTPVEEDMFHLRGSLAPQLYLRPHETAHVPFKFQSFSAGQLAMVQASPGLSNEKGMDAVSPWKSSAVPTKHAKVLFRASGGKPIAVLCLTVELQPHVVDQVFRFYHPELSFLKKAIRLPPWHTFPGAPVGMLGEDPPVHVRCSDPNVICETQNVGPGEPRDIFLKVASGPSPEIKDFFVIIYSDRWLATPTQTWQVYLHSLQRVDVSCVAGQLTRLSLVLRGTQTVRKVRAFTSHPQELKTDPKGVFVLPPRGVQDLHVGVRPLRAGSRFVHLNLVDVDCHQLVASWLVCLCCRQPLISKAFEIMLAAGEGKGVNKRITYTNPYPSRRTFHLHSDHPELLRFREDSFQVGGGETYTIGLQFAPSQRVGEEEILIYINDHEDKNEEAFCVKVIYQ |

— PMC2905641
